Measured values: publication PMC13183915, “A platinum butterfly effect: small changes turn an anticancer drug into a non-toxic metalloantibiotic with in vivo efficacy” (npj Antimicrobials and Resistance, 2026)

Test system: MRSA
Test: Antibiotic uptake assay (ICP-MS of cellular Pt)
Assay type: cell-based, S. aureus
Conditions: 1.56 µM Pt1, 6.25 µM Pt8, 100 µM CisPt

Compound: N.N.[Cl][Pt][Cl] [CisPt, cisplatin]
- Percent Pt content of MRSA cell lysate (% Pt) (60 min treatment): 0.03 ± 0.02%
- absolute amounts of platinum in bacteria after treatment (MRSA): 2.6 µg/L
